Results deposited as PubChem BioAssay AID743121 (NCATS, 2013).
This is an unselected part of about 26,000 deposited reagents. 167 of all reagents (0.63%) were called active. 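Calls are per gene from RSA p-values that are not deposited; an individual active-marked siRNA can sensitise only weakly.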 Reagents against one gene are numbered here. Further read-outs or replicates are left out here. No sequences are given here.

Screen: 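Knock-downs that sensitise breast cancer cells to camptothecin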 (primary screen)
System: MDA-MB-231 cells, a human breast cancer line
Reagents: single siRNA against human genes, 20 nM siRNA (0.8 pmol per well)
Time to read-out: 120 h (drug added 48 h after transfection, read 72 h later)
Conditions: camptothecin 20 nM (about EC30) for 72 h; vehicle 0.1% DMSO in parallel plates
Measured: 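Cell viability by ATP luminescence (CellTiter-Glo) as % of non-targeting siRNA wells, and the log2 ratio of viability without drug over viability with camptothecin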
Reading the numbers: log2 vehicle/camptothecin viability: higher = stronger sensitisation to camptothecin; viability with camptothecin: higher = more viable cells
Units: viability with camptothecin in % of control
Active means: 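Each gene scored by redundant siRNA activity (RSA) over its individual siRNA ratios; a gene is called active at p < 0.001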

What did the screen give for CASP9 #1?
log2 vehicle/camptothecin viability: -0.427; viability with camptothecin: 99.5; activity call: inactive

Which result is listed for CASP9 #2?
log2 vehicle/camptothecin viability: -0.0273; viability with camptothecin: 89.1; activity call: inactive

With CASP9 #3, what does the deposit list?
log2 vehicle/camptothecin viability: -0.308; viability with camptothecin: 59.9; activity call: inactive

For RANBP10 #1, how do the results read?
log2 vehicle/camptothecin viability: 0.0696; viability with camptothecin: 91.1; activity call: inactive

What did the screen give for RANBP10 #2?
log2 vehicle/camptothecin viability: -0.401; viability with camptothecin: 90.2; activity call: inactive

With RANBP10 #3, how do the results read?
log2 vehicle/camptothecin viability: 0.0459; viability with camptothecin: 20.6; activity call: inactive

What did the screen give for RANBP10 #4?
log2 vehicle/camptothecin viability: 0.338; viability with camptothecin: 47.6; activity call: inactive

Which result is listed for AGA #1?
log2 vehicle/camptothecin viability: -0.391; viability with camptothecin: 103; activity call: inactive

What is on record for AGA #2?
log2 vehicle/camptothecin viability: -0.0239; viability with camptothecin: 86; activity call: inactive

What is on record for AGA #3?
log2 vehicle/camptothecin viability: -0.0861; viability with camptothecin: 102; activity call: inactive

For AGA #4, what does the deposit list?
log2 vehicle/camptothecin viability: 0.0785; viability with camptothecin: 84.8; activity call: inactive

With BTBD6 #1, what was measured?
log2 vehicle/camptothecin viability: -0.231; viability with camptothecin: 94; activity call: inactive

With BTBD6 #2, what does the deposit list?
log2 vehicle/camptothecin viability: -0.257; viability with camptothecin: 60.7; activity call: inactive

For PANK2 #1, what does the deposit list?
log2 vehicle/camptothecin viability: -0.0183; viability with camptothecin: 87.6; activity call: inactive

What is on record for PANK2 #2?
log2 vehicle/camptothecin viability: -0.491; viability with camptothecin: 86.2; activity call: inactive

With PANK2 #3, how do the results read?
log2 vehicle/camptothecin viability: -0.426; viability with camptothecin: 66.3; activity call: inactive

Which result is listed for PANK2 #4?
log2 vehicle/camptothecin viability: -0.712; viability with camptothecin: 53.6; activity call: inactive

How did the screen score CD274 #1?
log2 vehicle/camptothecin viability: 0.223; viability with camptothecin: 96.8; activity call: inactive

What did the screen give for CD274 #2?
log2 vehicle/camptothecin viability: 0.107; viability with camptothecin: 90.4; activity call: inactive

Which result is listed for CD274 #3?
log2 vehicle/camptothecin viability: -0.0127; viability with camptothecin: 121; activity call: inactive

A few values from the entries so far:
Value of AGA #1 under “activity call”: inactive
For “activity call”, BTBD6 #1 shows inactive
CD274 #3, activity call: inactive
CD274 #2, activity call = inactive
Value for RANBP10 #2 in “log2 vehicle/camptothecin viability”: -0.401

The list goes on:
For GPR27 #1, how do the results read?
log2 vehicle/camptothecin viability: -0.191; viability with camptothecin: 85.8; activity call: inactive

For GPR27 #2, how do the results read?
log2 vehicle/camptothecin viability: -0.481; viability with camptothecin: 55.8; activity call: inactive

For GPR27 #3, how do the results read?
log2 vehicle/camptothecin viability: -0.129; viability with camptothecin: 17.2; activity call: inactive

Which result is listed for GPR27 #4?
log2 vehicle/camptothecin viability: -0.173; viability with camptothecin: 94; activity call: inactive

What is on record for SPTAN1 #1?
log2 vehicle/camptothecin viability: 0.232; viability with camptothecin: 87.4; activity call: inactive

How did the screen score SPTAN1 #2?
log2 vehicle/camptothecin viability: 0.302; viability with camptothecin: 54.1; activity call: inactive

For SPTAN1 #3, what was measured?
log2 vehicle/camptothecin viability: -0.312; viability with camptothecin: 107; activity call: inactive

With SPTAN1 #4, how do the results read?
log2 vehicle/camptothecin viability: 0.465; viability with camptothecin: 45.5; activity call: inactive

With KCNN2 #1, what was measured?
log2 vehicle/camptothecin viability: -0.372; viability with camptothecin: 27.3; activity call: inactive

What did the screen give for KCNN2 #2?
log2 vehicle/camptothecin viability: -0.262; viability with camptothecin: 118; activity call: inactive

Which result is listed for KCNN2 #3?
log2 vehicle/camptothecin viability: -0.389; viability with camptothecin: 86.1; activity call: inactive

Which result is listed for KCNN2 #4?
log2 vehicle/camptothecin viability: -0.496; viability with camptothecin: 55.4; activity call: inactive

For CXCR5 #1, what does the deposit list?
log2 vehicle/camptothecin viability: -0.378; viability with camptothecin: 103; activity call: inactive

Which result is listed for CXCR5 #2?
log2 vehicle/camptothecin viability: 0.275; viability with camptothecin: 89.7; activity call: inactive

With CXCR5 #3, how do the results read?
log2 vehicle/camptothecin viability: -0.296; viability with camptothecin: 75.2; activity call: inactive

With CXCR5 #4, what does the deposit list?
log2 vehicle/camptothecin viability: 0.0359; viability with camptothecin: 58; activity call: inactive
